From article PMC4675091
Results are given in words; binding and its absence hold for the method and conditions named. In cells and extracts the contact can be indirect. For part of these data: Binding can be weak; no strength is given.

Chains of the proteins cited; added tags and fusions are not shown. Lines headed by an entry give the natural chain unless they say otherwise; changes in a name come on top. A line that says so, or that is headed by a name, gives the form on record, which may keep a tag or linker. Residues count along the entry.
UniProt P35612: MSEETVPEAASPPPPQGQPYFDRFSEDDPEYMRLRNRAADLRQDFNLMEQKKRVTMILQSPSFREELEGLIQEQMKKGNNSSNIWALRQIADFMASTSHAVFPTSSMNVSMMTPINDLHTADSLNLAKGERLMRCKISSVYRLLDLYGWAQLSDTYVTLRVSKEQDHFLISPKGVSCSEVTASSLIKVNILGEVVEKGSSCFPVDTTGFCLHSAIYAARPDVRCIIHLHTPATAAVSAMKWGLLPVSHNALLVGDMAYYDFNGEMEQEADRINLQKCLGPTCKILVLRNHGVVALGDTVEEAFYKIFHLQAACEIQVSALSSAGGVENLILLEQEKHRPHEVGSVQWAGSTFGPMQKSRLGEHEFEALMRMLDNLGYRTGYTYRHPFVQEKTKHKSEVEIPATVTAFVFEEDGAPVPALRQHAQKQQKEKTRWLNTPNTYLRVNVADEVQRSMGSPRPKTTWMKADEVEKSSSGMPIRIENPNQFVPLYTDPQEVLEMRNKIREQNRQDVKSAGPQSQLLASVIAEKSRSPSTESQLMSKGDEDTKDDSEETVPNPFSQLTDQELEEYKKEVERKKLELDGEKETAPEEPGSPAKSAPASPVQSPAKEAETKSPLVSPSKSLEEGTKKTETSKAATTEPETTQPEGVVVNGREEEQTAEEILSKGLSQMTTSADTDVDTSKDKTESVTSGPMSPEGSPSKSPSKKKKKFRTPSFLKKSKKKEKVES
myc-tagged C-terminal fragment of β-adducin (aa 502–726): residues 502-726 of P35612
myc-tagged β-adducin 502–613-fragment lacking the MARCKS domain: residues 502-613 of P35612
UniProt Q60829: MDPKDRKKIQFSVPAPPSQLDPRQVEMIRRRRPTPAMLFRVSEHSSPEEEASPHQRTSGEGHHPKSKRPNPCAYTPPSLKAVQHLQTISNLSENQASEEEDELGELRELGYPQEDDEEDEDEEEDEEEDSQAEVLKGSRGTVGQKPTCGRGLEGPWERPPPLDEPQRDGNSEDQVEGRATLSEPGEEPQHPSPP
UniProt Q6J4I0: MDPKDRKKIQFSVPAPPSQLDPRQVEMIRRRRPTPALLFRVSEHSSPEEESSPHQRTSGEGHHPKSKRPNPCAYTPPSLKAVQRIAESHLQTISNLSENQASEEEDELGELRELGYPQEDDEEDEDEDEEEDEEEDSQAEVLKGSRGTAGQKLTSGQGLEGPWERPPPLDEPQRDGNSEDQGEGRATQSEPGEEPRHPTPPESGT

What was measured:
[1] = target: β-adducin–mCherry (human) (UniProt P35612); assay: FRET or BRET; acceptor photobleaching FRET between GFP and mCherry fusions in fixed, co-transfected mouse striatal neurons in culture
[2] = target: myc-tagged full-length β-adducin (human) (UniProt P35612); assay: co-IP; sequential: myc-β-adducin constructs from COS-7 lysate (RIPA) bound to anti-myc agarose, then lysate of COS-7 cells transfected with DARPP-32-GFP overnight at 4 °C; washed in TBS, 1% Tween 20 with additional 50 mM NaCl; immunoblot for DARPP-32
[3] = target: myc-tagged C-terminal fragment of β-adducin (aa 502–726) (human) (UniProt P35612); assay: as above
[4] = target: myc-tagged β-adducin 502–613-fragment lacking the MARCKS domain (human) (UniProt P35612); assay: as above

| binding [1] | binding [2] | binding [3] | binding [4] | Substance |
| --- | --- | --- | --- | --- |
| binds | binds | – | – | S97D-DARPP-32-GFP (from UniProt Q60829) |
| binds | binds | binds | no binding | WT DARPP-32-GFP (from UniProt Q6J4I0) |
